In PubChem BioAssay AID485298 (National Center for Advancing Translational Sciences (NCATS), 2010):
Screen size: about 320,000 compounds; about 740 (0.23%) were called active. The inconclusive results got no clear call from the source; some entries with a clear call stand among them for comparison. Calls come from the whole dose curve; as a rule, active = well fitted activation curve with a large enough effect; inconclusive = small, poorly fitted or top-dose-only effect; inactive = no such curve, though single readings can be large or run the other way. A potency beside an inconclusive call is a rough fit, not a confirmed value.

Assay: qHTS Assay for Small Molecule Inhibitors of Mitochondrial Division or Activators of Mitochondrial Fusion; note: nearly all actives have a fitted effect of over 45% in size;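 for growth rescue (activation): temperature-sensitive fusion mutants such as fzo1-1 at 37 °C on non-fermentable ethanol glycerol medium; % of control where 0% means no effect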
Settings: S. cerevisiae fusion-defective mutant growth rescue, CellTiterGlo 48 h; growth rescue (activation): at 46.1 µM (top of the series) unless noted
Procedure, shortened: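 Yeast fusion mutant, YPEG (non-fermentable carbon), compound, 48 h at 37C non-permissive; CellTiterGlo added, 10 min RT, luminescence read. Rescued growth = division inhibition.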
Potency is the fitted concentration of half-maximal effect.

Row | SMILES | growth rescue (activation) | Potency
1 | COC(=O)/C=C1\S/C(=N/N=C/c2ccco2)NC1=O | inactive: 13.8% | –
2 | COC(=O)[C@@]12CCCCN1[C@H](c1ccc(-c3ccc4c(c3)OCO4)c(OC)c1)[C@@H]1C(=O)N(C)C(=O)[C@@H]12 | – | inconclusive: 22.4 µM [activator, single point]
3 | COc1ccc([C@H]2CC(=O)C=C(c3cccc(Cl)c3)C2)cc1 | – | inconclusive: 12.6 µM [activator, single point]
4 | NC(=O)N/N=C/c1cccc(OCc2ccc(F)cc2)c1 | – | inconclusive: 2.51 µM [activator, partial curve, poor fit]
5 | CC(Oc1cccc(Cl)c1)C(=O)NCCCCc1ccccc1 (stereo not given) | – | inconclusive: 15.8 µM [activator, single point]
6 | Cc1cc(C)c(C#N)c(Sc2ccc(N)cc2)n1 | – | inconclusive: 17.8 µM [activator, partial curve]
7 | N/C(=N\NC(=O)c1sccc1OCc1ccc(Cl)cc1Cl)c1ccccn1 | inactive: -6.07% | –
8 | Cc1nc(NC(=O)C23CC4CC(CC(C4)C2)C3)sc1Cc1ccc2c(c1)OCO2 | – | inconclusive: 12.6 µM [activator, partial curve]
9 | COc1ccc(CCNc2cc(C)nc3c(-c4ccccc4)c(C)nn23)cc1OC | – | inconclusive: 20 µM [activator, single point]
10 | O=C(O)c1cccc(NC(=S)NC(=O)c2cccc(OCc3ccccc3)c2)c1 | – | inconclusive: 31.6 µM [activator, single point]
11 | O=C(COc1ccc(Cl)cc1Br)Nc1cccc(S(=O)(=O)N2CCCC2)c1 | – | inconclusive: 25.1 µM [activator, single point]
12 | O=C(c1ccncc1)N1CCN(C2CCC(c3ccccc3)CC2)CC1 (stereo not given) | – | inconclusive: 22.4 µM [activator, single point]
13 | OCC1(Cc2ccc(Cl)cc2)CCN(Cc2ccc3nsnc3c2)CC1 | – | inconclusive: 10 µM [activator, partial curve]
14 | Cc1c(C(=O)NCc2ccc3c(c2)OCO3)oc2ccccc12 | – | inconclusive: 22.4 µM [activator, single point]
15 | CC(=O)c1cccc(OCc2cc(C(=O)N3CC4C[C@@H]5CC3C[C@H](C4)C5)no2)c1 | – | inconclusive: 11.2 µM [activator, partial curve]
16 | CC(C)NC(=O)c1ccc(CSCc2ccccc2Cl)o1 | inactive: 14.3% | –
17 | Cc1ccc(Nc2nc(N)c(C#N)c(CC#N)c2C#N)cc1 | inactive: 3.82% | –
18 | NCCCNC(=O)c1cc2ccccc2[nH]1 | inactive: -3.36% | –
19 | CN(C(=O)CCCOc1ccc2[nH]c(=O)ccc2c1)C1CCCCC1 | – | inconclusive: 23.1 µM [activator, single point]
20 | COc1ccc(N2C(=O)CC2(C#N)c2ccc(OCc3ccccc3)cc2)cc1 (stereo not given) | – | inconclusive: 8.91 µM [activator, partial curve]
21 | CN(C1=C(N2CCCCC2)C(=O)c2ccccc2C1=O)c1ccccc1 | inactive: 5.58% | –
22 | CCCn1c(-c2ccc(F)cc2)n[nH]c1=S | – | inconclusive: 22.4 µM [activator, single point]
23 | Cc1sc2nc(CN(Cc3cccs3)C(=O)NC3CCCCC3)[nH]c(=O)c2c1C | – | inconclusive: 10 µM [activator, partial curve]
24 | CC(C)(C)NC(=O)CSc1nc(-c2ccc(F)cc2)cs1 | inactive: -2.57% | –

Row | SMILES | growth rescue (activation) | Potency
25 | Cc1ccccc1S(=O)(=O)Cc1ccc(C(=O)NC2CCCCCC2)o1 | – | inconclusive: 0.891 µM [activator, full curve, poor fit]
26 | O=C(OCc1ccc(Br)cc1)c1cccc(S(=O)(=O)N2CCCC2)c1 | – | inconclusive: 17.8 µM [activator, single point]
27 | Cn1c2ccccc2c2c(C(=O)N3CCN(c4ccc(F)cc4)CC3)cn(C3CCCC3)c(=O)c21 | – | inconclusive: 11.2 µM [activator, partial curve]
28 | O=C(O)c1ccc(C2Nc3ccccc3C(=O)N2Cc2ccccc2)cc1 (stereo not given) | – | inconclusive: 3.98 µM [activator, full curve]
29 | Cc1cc(=O)oc2c(C)c(OCC(=O)N3CCN(c4ccccc4)CC3)ccc12 | inactive: 11.2% | –
30 | CCCCCCn1c(N2CCN(c3ccccc3)CC2)nc2c1c(=O)[nH]c(=O)n2C | – | inconclusive: 14.1 µM [activator, partial curve]
31 | O=C(OCCc1cc2ccccc2c(=O)o1)c1cccc(Br)c1 | – | inconclusive: 35.5 µM [activator, partial curve, poor fit]
32 | CCOC(=O)c1c(NC(C)=O)sc2c(O)c(Br)cc(Br)c12 | – | inconclusive: 14.1 µM [activator, partial curve]
33 | CC(C)OC(=O)CSc1nc(Cc2cccs2)nc2ccccc12 | – | inconclusive: 17.8 µM [activator, single point]
34 | COc1ccc(-c2cccc(NC(=O)COc3ccc(Cl)cc3)c2)nn1 | – | inconclusive: 35.5 µM [activator, single point]
35 | CCCCNc1c(-c2ccc(-c3ccc(C(C)=O)cc3)c(OC)c2)nc2cnccn12 | – | inconclusive: 14.1 µM [activator, single point]
36 | O=C1C2C3C=CC(C3=C(c3ccccc3)c3ccccc3)C2C(=O)N1CCO (stereo not given) | inactive: -2.12% | –
37 | CC(C)c1cc(=O)oc2c3c4c(cc12)CCCN4CCC3 | – | inconclusive: 12.6 µM [activator, partial curve]
38 | COc1ccc2nc(N=NC3=C(O)CC(C)(C)CC3=O)sc2c1 | – | inconclusive: 12.6 µM [activator, single point]
39 | Cc1ccc(CNc2ccc3c(c2)ncn3C(C)(C)C)cc1 | – | inconclusive: 7.94 µM [activator, single point]
40 | O=C(COc1ccc(Cl)cc1Cl)N1CCCN(C(=O)COc2ccc(Cl)cc2Cl)CC1 | – | inconclusive: 35.5 µM [activator, single point]
41 | CCCCOc1ccc(C(O)C(CN2CCOCC2)c2ccccc2)cc1 (stereo not given) | – | inconclusive: 5.62 µM [activator, single point]
42 | COc1ccc(C(C)(C)C)cc1NC(=O)COC(=O)CSCc1c(C)noc1C | inactive: 12% | –
43 | CCOc1ccc(C(=O)Nc2ccc(NC(=O)c3ccco3)c(Cl)c2)cc1Cl | inactive: -1.11% | –
44 | CC(=C/c1ccc(C(C)C)cc1)/C=N/NC(=O)CSc1ccccn1 | inactive: 17.9% | –
45 | Cc1cc(NC(=O)c2ccco2)c(=O)n(Cc2c(F)cccc2Cl)c1 | – | inconclusive: 12.6 µM [activator, partial curve]
46 | Cc1ccc(S(=O)(=O)N(C)/N=C/c2ccc(C(=O)O)cc2)cc1 | – | inconclusive: 31.6 µM [activator, single point]
47 | CCCCn1c(C)cc2c(c1=O)C1O[C@](CCCC)(Cc3cc(C#N)ccc31)O2 | inactive: -2.61% [at 9.22 µM] | –
48 | CC12CCC(c3c(C(=O)Nc4nccs4)nn(-c4ccccc4)c31)C2(C)C (stereo not given) | – | inconclusive: 5.62 µM [activator, single point]

A few values from the entries so far:
Potency with O=C(O)c1ccc(C2Nc3ccccc3C(=O)N2Cc2ccccc2)cc1 (stereo not given) reads inconclusive: 3.98 µM [activator, full curve]
growth rescue (activation) with N/C(=N\NC(=O)c1sccc1OCc1ccc(Cl)cc1Cl)c1ccccn1 reads inactive: -6.07%

Next part:

Row | SMILES | growth rescue (activation) | Potency
49 | c1ccc2c(c1)NCC1CCCN21 (stereo not given) | inactive: -10.6% | –
50 | COc1ccc(N(CC(=O)Nc2ccc3c(c2)OCCO3)S(=O)(=O)c2cccc(C)c2)cc1 | – | inconclusive: 14.1 µM [activator, single point]
51 | CC(C)CC(=O)NC(=S)Nc1ccc(NC(=O)c2ccco2)cc1 | – | inconclusive: 11.2 µM [activator, partial curve]
52 | Cc1cccc(Nc2nc(N)c([N+](=O)[O-])c(NCc3ccccc3)n2)c1 | – | inconclusive: 5.62 µM [activator, partial curve]
53 | CCc1ccc(OCC(=O)Nc2ccc(-c3cc4ccccc4oc3=O)c(OC)c2)cc1 | – | inconclusive: 3.55 µM [activator, single point]
54 | O=C1C(Cc2ccccc2)Nc2ncnc(N3CCc4ccccc4C3)c2N1Cc1ccc(Cl)cc1 (stereo not given) | – | active: 10 µM
55 | CC(C)C(=O)Nc1ccc(NC(=O)c2cccc3c(Br)cccc23)cc1 | inactive: 0.42% | –
56 | CCCC(c1nnnn1C(C)(C)C)N1CCN(c2ccccc2)CC1 (stereo not given) | – | active: 10 µM
57 | O=C(Nc1ccc([N+](=O)[O-])cc1Cl)c1cc(Cl)ccc1O | – | inactive
58 | c1ccc(-c2csc3ncnc(N4CCOCC4)c23)cc1 | – | inconclusive: 14.1 µM [activator, partial curve]
59 | Cc1cc(N2CCCC(C(=O)Nc3cccc4ccccc34)C2)n2ncnc2n1 (stereo not given) | – | inconclusive: 20 µM [activator, single point]
60 | CCO/N=C(\C)c1c(O)c(CC)c(-c2ccccc2)n(-c2ccccc2)c1=O | – | inconclusive: 25.1 µM [activator, single point]
61 | Cc1cc2oc(=O)c(CC(=O)NCCCN(C)C)c(C)c2c2occ(C(C)(C)C)c12 | – | inconclusive: 31.6 µM [activator, single point]
62 | CCn1c(C)c(/C=N/Nc2nc3ccccc3s2)c2ccccc21 | inactive: -7.69% | –
63 | Cc1cc(=O)n2c(n1)OC(CO)C2 (stereo not given) | – | inconclusive: 31.6 µM [activator, single point]
64 | O=C1CCC(C(=O)N2CCCCO2)CN1Cc1ccc(Cl)cc1 (stereo not given) | inactive: 1.26% | –
65 | O=c1c(-c2ccc([N+](=O)[O-])cc2)coc2c(O)c(O)ccc12 | – | inconclusive: 5.62 µM [activator, single point]
66 | COc1ccc(N=c2ssnc2Cl)cc1 | inactive: -1.25% | –
67 | CCSc1ccccc1C(=O)N1CCC2(CC1)CC(=O)c1ccccc1O2 | inactive: 16% | –
68 | CCOc1ccc(CC(=O)NNC(=O)/C=C/C(=O)O)cc1 | – | inconclusive: 3.98 µM [activator, single point]
69 | Cc1ccc(C)c(-c2ccc(=O)n(Cc3ccc(F)cc3Cl)n2)c1 | – | inconclusive: 17.8 µM [activator, partial curve]
70 | Cc1ccccc1S(=O)(=O)Oc1ccc2ccc(O)cc2c1 | inactive: 2.51% | –
